Data published in doi:10.1101/2025.03.11.642421.
Where two headings read alike, the source gives them in different places. Results are given in words; binding and its absence hold for the method and conditions named. In cells and extracts the contact can be indirect. Some entries that bind do so weakly or less than the wild type.

Amino acid sequences for entries named in this document (tags omitted). A change or cut given only in a name is not applied to a line headed by its entry.
UniProt Q92847: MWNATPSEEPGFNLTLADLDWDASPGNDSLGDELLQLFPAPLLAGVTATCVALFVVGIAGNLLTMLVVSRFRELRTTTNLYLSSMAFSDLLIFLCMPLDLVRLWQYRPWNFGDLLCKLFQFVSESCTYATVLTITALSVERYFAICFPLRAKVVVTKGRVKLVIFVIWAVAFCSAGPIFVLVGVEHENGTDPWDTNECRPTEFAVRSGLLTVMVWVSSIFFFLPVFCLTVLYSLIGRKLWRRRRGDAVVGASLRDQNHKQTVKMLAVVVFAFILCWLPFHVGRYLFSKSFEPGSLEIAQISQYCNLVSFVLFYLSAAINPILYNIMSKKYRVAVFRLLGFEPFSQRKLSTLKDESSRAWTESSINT
UniProt P25098: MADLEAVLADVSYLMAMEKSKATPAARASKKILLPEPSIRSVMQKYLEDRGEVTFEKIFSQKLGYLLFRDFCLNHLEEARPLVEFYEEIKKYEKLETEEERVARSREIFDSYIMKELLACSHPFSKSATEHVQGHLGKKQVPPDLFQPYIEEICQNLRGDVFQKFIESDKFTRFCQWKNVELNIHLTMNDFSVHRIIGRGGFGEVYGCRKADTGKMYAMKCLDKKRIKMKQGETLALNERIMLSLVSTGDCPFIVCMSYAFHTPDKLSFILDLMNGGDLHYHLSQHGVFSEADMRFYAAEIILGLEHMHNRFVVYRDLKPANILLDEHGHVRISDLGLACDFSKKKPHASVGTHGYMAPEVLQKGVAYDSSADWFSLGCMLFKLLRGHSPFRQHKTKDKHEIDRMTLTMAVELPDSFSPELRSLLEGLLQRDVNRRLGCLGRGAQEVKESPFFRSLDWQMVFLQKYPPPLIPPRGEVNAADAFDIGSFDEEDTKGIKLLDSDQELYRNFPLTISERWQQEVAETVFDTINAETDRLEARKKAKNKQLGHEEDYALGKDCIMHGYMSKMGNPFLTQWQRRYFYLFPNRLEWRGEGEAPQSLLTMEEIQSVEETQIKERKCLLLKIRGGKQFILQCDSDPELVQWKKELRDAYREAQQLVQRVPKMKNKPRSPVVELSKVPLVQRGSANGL
UniProt P34947: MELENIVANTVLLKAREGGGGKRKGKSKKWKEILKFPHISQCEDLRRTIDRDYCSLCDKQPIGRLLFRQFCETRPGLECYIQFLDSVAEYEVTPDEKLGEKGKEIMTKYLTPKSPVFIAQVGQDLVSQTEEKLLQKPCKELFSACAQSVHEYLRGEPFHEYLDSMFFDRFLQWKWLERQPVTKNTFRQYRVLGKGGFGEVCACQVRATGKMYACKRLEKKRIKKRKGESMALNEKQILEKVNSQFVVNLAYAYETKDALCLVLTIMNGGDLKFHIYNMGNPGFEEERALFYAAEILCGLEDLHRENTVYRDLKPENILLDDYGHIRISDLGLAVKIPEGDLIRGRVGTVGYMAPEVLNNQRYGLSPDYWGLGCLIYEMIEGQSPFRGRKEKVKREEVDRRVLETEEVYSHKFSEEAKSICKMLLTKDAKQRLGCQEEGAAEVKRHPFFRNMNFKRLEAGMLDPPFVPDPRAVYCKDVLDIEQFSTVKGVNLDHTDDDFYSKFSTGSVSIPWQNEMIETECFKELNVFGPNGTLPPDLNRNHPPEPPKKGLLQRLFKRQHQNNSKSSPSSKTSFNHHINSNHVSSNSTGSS
UniProt P43250: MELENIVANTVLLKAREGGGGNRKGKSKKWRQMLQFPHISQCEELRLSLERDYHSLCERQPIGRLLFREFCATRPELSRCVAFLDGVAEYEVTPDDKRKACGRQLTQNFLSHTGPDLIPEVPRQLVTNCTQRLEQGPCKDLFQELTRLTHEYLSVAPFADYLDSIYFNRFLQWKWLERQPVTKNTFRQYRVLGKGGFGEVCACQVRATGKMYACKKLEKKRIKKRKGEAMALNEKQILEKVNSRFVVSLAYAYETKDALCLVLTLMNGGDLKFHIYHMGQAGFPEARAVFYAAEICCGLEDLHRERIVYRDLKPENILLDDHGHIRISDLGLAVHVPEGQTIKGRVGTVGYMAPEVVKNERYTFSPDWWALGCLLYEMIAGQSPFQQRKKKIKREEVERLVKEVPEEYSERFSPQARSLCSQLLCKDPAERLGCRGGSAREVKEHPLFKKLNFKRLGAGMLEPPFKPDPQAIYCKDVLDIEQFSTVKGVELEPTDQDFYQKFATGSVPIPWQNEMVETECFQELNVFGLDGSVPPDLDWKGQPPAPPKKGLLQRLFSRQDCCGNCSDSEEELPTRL
UniProt P49407: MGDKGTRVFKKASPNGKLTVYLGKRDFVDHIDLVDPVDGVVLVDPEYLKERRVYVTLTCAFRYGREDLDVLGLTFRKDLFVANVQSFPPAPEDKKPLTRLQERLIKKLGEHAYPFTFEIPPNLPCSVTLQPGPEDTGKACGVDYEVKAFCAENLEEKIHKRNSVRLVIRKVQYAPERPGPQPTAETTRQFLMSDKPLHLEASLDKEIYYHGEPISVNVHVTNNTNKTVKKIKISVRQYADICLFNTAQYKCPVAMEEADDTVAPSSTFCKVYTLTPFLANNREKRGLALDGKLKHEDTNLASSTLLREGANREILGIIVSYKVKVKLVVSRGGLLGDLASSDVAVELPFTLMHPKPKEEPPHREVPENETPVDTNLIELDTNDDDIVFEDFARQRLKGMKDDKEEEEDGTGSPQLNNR

Legend:
Assay in all cases: FRET or BRET
[1] = target: hGHSR1a^WT-RLuc8 (N-terminally 3xHA-tagged human growth hormone secretagogue receptor 1a, wild type, fused to RLuc8) (human) (UniProt Q92847)
[2] = target: hGHSR1a^WT-RLuc8 (N-terminally 3xHA-tagged human growth hormone secretagogue receptor 1a, wild type, fused to RLuc8) (human) (UniProt Q92847); remark: listed apart in the source
[3] = target: hGHSR1a^WT-RLuc8 (N-terminally 3xHA-tagged human growth hormone secretagogue receptor 1a, wild type, fused to RLuc8) (human) (UniProt Q92847); remark: listed apart in the source

Substance	binding [1]	binding [2]	binding [3]
GRK2^ΔV661-ct (truncated GRK2, YFP-tagged) (from UniProt P25098 1-660) (domain or fragment)	binds	–	–
GRK5-YFP (G protein-coupled receptor kinase 5) (from UniProt P34947 1-590) (enzyme)	binds	–	–
GRK6-YFP (G protein-coupled receptor kinase 6) (from UniProt P43250 1-576) (enzyme)	binds	–	–
N-terminally mVenus-tagged human βarr1 (β-arrestin 1) (from UniProt P49407 1-418)	binds	binds weakly	binds
N-terminally mVenus-tagged human βarr2 (β-arrestin 2) (from UniProt P32121 1-409)	binds	binds weakly	binds
YFP-tagged WT-GRK2 (GRK2^WT-YFP; G protein-coupled receptor kinase 2) (from UniProt P25098 1-689) (enzyme)	binds	–	–
